Results are given in words; binding and its absence hold for the method and conditions named. In cells and extracts the contact can be indirect. These calls come from enrichment with a bait or labelling near it, and not all partners need be listed. Where a sequence is shown, tags or fusion partners need not be part of it.

This experiment deals with T1, FLAG-tagged Mio (D. melanogaster) (UniProt Q9VQ89).
T1 sequence: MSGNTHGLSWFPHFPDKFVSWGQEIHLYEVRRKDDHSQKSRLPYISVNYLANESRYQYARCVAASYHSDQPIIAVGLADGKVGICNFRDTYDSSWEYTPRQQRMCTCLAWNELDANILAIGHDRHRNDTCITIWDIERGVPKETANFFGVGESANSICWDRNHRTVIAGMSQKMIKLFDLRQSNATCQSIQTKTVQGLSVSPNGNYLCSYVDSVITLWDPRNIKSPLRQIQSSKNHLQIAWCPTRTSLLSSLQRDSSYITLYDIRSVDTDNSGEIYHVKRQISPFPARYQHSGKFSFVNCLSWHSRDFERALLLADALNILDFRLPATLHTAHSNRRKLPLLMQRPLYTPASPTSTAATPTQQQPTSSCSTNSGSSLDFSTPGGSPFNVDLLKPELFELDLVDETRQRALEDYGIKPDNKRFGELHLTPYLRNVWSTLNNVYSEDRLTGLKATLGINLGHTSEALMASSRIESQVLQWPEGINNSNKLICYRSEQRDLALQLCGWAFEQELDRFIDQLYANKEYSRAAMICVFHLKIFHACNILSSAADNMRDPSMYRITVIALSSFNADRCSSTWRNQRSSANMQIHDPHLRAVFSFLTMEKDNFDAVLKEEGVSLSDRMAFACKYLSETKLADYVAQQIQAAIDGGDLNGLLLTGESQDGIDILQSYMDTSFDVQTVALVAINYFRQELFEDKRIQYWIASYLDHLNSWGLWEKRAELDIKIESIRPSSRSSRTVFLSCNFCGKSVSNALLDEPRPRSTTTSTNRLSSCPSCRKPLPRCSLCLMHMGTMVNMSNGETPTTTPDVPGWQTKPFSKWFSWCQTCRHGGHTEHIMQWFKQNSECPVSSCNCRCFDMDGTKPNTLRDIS
Put plainly: affinity purification with mass spectrometry; anti-FLAG magnetic beads on lysates of S2R+ cells expressing FLAG-Mio (75 uM CuSO4, 4 days); 1% Triton lysis buffer, washes with 300 mM NaCl, elution with FLAG peptide; repeated without all amino acids, without leucine and with all amino acids.

B1: dSestrin, endogenous in S2R+ cells (protein, UniProt Q9W1K5 1-497)
chain: MYYAVDYYADMGQISQDCFAATQTGASDFDMDELDDLDQVTQVIGYHPQFHDHFLATQNFIMKGDGPLPNDYRYYLAIIAAARHQCPYLVKRYEKEFINQGGDSAWLGGLDFIPAKLRAIYDINKILAHRPWLLRKEHIERLTKGKNSWSLSEVVHAMVLLSHFHSLSSFVFSCGLTQKLDGLSSPKLKSPPAAVAALAPTILITPTSPTEPQKGKPVLAEISLNNANPDYDSQTAASSNGGAPPDSANAVADGPDATTLNGYLATAQQLPQQHGISVETLMERMKVLSQKQDECSEAELSSRFQKVEQQTAELAAVTPEAAVGVPTNLSHYVDDANFIYQDFARRGTESINTFRIQDYSWEDHGYSLVDGLYNDVGIFLDAKFRAAYNLTYCTMGGIKNVDTSKFRRAIWNYIQCIYGIRHDDYDYGEVNQLLVRPLKMFIKTACCFPERITTKDYDSVLVELQDSEKVHVNLMIMEARNQAELLYALREIMRYMT
B1: the binding result is “binds”.

B2: Unmet expectations (CG11596), endogenous in S2R+ cells (protein, UniProt Q9I7X6 1-456)
chain: MSSMDCATFPMHPKMDEQLARTFVINEEEEEKHIQKVQNAFLYYGPYACQRLKRSMDYLNSLSGEDQIMLAKYRGHLECVRTCIDRNQAVIREILRGRVLYPTDEATGDPSEFDEPPPNVRHGDMDQIDIPFDEADVEPLKILKAQSTLKLIARDWSTEGALEREQSYKPIIDSIVAYFKHSDFELKDIKILVPGAGLGRLTYELACLGYSCEGNEFSYFMLIASNFVLNLCDNENKYVLYPWVHQYVNNLRREDQVAPVRFPDVCPLKNPPKGHFEIAAGDFLEVYKTPNAYNCVATCFFIDCANNVIDFIRTIYKILVPGGIWVNLGPLLYHFSDVSGQNSIEPAFEDLCIIMESVGFVIEKSRTGIRTKYAQNPSSMKQSEYQSLFWVCRKPDLFEEQRGKRKASREPHDLIVREDSEEEGEQQPERNETEEKQQLKPLATANCETEIKEQPS
For B2, the binding entry was “binds”.

Values taken from PMC10957897, “An evolutionary mechanism to assimilate new nutrient sensors into the mTORC1 pathway” (Nature Communications, 2024).
